Reference: patent US7897401B2, “Control of apoptosis by controlling the propensity of ceramide channel formation” (University of Maryland, College Park, priority 2005, dated 2011)
No dose or concentration is given here for some results.

System: erythrocytes
Assay: Permeabilization of erythrocytes (osmolytes of varying molecular weight)
Format: cell-based
Conditions: 15 min incubation, FIG. 10

In the case of `CCCCCCCCCCCCC/C=C/[C@@H](O)[C@@H](N)CO` [sphingosine], the “molecular weight cut off of channels in erythrocytes” value is reported as 1 kDa.
